The supplement of paper PMC11348887
Counter-ions that a name gives are not always drawn. Some of the results follow. Most entries show no effect beyond the scatter of the controls. Where a SMILES comes first, the peptide text is derived from it.

tested on: hPSC-derived cortical neurons (WA09); assay: total neurite length per nucleus (MAP2) z-score; higher = more neurite growth; conditions: 5 µM; treatment: days 7-14 after plating, readout day 21

Row | SMILES | total neurite length per nucleus (z-score)
1 | C[N+](C)(C)C[C@H](O)CC(=O)[O-] [L-carnitine] | -0.0995
2 | Cc1nc(Nc2cnn(C3CCNCC3)c2)nc2c1N(C)C(=O)c1cc3ccccc3cc1N2C | -1.11
3 | [O-][n+]1cccc(CO)c1 [Mepiroxol] | 0.617
4 | COc1cc(N2CCC(N3CCN(C)CC3)CC2)ccc1Nc1ncnc(Nc2ccccc2S(=O)(=O)C(C)C)n1 | -0.393
5 | Nc1ccn([C@@H]2CS[C@H](CO)O2)c(=O)n1 [Lamivudine] | -0.488
6 | C=C1CC[C@H](O)C/C1=C/C=C1\CCC[C@]2(C)[C@@H]([C@H](C)CCCC(C)C)CC[C@@H]12 [Vitamin D3] | -0.334
7 | C[C@]12C=CC(=O)N[C@@H]1CC[C@@H]1[C@@H]2CC[C@]2(C)[C@@H](C(=O)Nc3cc(C(F)(F)F)ccc3C(F)(F)F)CC[C@@H]12 [Dutasteride] | 0.679
8 | CC[C@@](C)(Nc1ccnc(-c2c[nH]c3ncccc23)n1)C(=O)NCC(F)(F)F [Decernotinib (VX-509)] | 1.39
9 | O=C(c1ccc(/C=C/c2n[nH]c3ccccc23)cc1)N1CCNCC1 | 2.16
10 | Nc1cc(F)ccc1NC(=O)/C=C/c1cnn(C/C=C/c2ccccc2)c1 | 0.249
11 | O=C(OCc1ccccc1)c1ccccc1 [Benzyl benzoate] | 0.572
12 | COC(=O)[C@H](Cc1ccccc1)NC(=O)[C@@H](N)CC(=O)O [Aspartame] (H-Asp-Phe-OMe) | -0.993
13 | CC(C)[C@H](N)C(=O)OCCOCn1cnc2c(=O)nc(N)[nH]c21 [Valaciclovir HCl] | -0.445
14 | COC(=O)[C@H](c1ccccc1Cl)N1CCc2sccc2C1 [Clopidogrel] | 0.0878
15 | CC(C)(c1ccc(OCC(O)CO)cc1)c1ccc(OCC(O)CCl)cc1 (centres undefined) | 0.319
16 | C[C@H](CS)C(=O)N1CCC[C@H]1C(=O)O [Captopril] | 0.0554
17 | CCCC[C@@H](C=O)NC(=O)[C@H](CC(C)C)NC(=O)OCc1ccccc1 [Calpeptin] | 0.0131
18 | CCOC(=O)[C@@H](N)Cc1ccc(-c2cc(O[C@H](c3ccc(Cl)cc3-n3ccc(C)n3)C(F)(F)F)nc(N)n2)cc1 [Telotristat Etiprate (LX 1606 Hippurate)] | 0.922
19 | c1cn2cc(-c3ccc4cn[nH]c4c3)nc(Nc3ccc(N4CCOCC4)cc3)c2n1 | 0.476
20 | C[C@H]1[C@@H](O)O[C@@H]2O[C@@]3(C)CC[C@H]4[C@H](C)CC[C@@H]1[C@@]24OO3 [Dihydroartemisinin (DHA)] | -0.6

Row | SMILES | total neurite length per nucleus (z-score)
21 | OC[C@@H](O)[C@@H](O)CO [Erythritol] | -0.254
22 | COc1cc(N2CCN(C)CC2)ccc1Nc1nccc(-c2cn(C)c3cnccc23)n1 | -3.24
23 | O=C(Cc1ccccc1)Nc1nnc(CCSCCc2nnc(NC(=O)Cc3ccccc3)s2)s1 | 1.15
24 | Cc1cc2c(F)c(Oc3ncnn4cc(OC[C@@H](C)O)c(C)c34)ccc2[nH]1 | 0.53
25 | CCn1c(=O)c2c(nc(/C=C/c3ccc(OC)c(OC)c3)n2C)n(CC)c1=O [Istradefylline] | 0.586
26 | C[C@H]1[C@H](C)CC[C@]2(C(=O)O)CC[C@]3(C)C(=CC[C@@H]4[C@@]5(C)C[C@@H](O)[C@H](O)[C@@](C)(CO)[C@@H]5CC[C@]43C)[C@H]12 [Asiatic Acid] | 0.268
27 | Cc1cc(=O)[nH]c(=S)[nH]1 [Methylthiouracil] | 1.09
28 | C[C@H]1CO[C@@H]2Cn3cc(C(=O)NCc4ccc(F)cc4F)c(=O)c(O)c3C(=O)N12 | 0.227
29 | O=C(O)c1ccccc1Nc1cccc(C(F)(F)F)c1 [Flufenamic acid] | 0.0576
30 | O=C(Oc1ccccc1C(=O)O)c1ccccc1O [Sasapyrine] | 0.441
31 | CC(C)C[C@H](NC(=O)[C@H]1O[C@@H]1C(=O)O)C(=O)NCCCCN=C(N)N | -3.2
32 | COc1cc(-c2cc(-c3cccc(O)c3)cnc2N)cc(OC)c1OC | 0.0936
33 | Cc1cc(Nc2cc(CN3CCOCC3)c3nc(C)c(Cc4ccc(Cl)cc4F)n3n2)n[nH]1 | 0.864
34 | N=C(N)NCCC[C@H](N)C(=O)O [L-Arginine HCl (L-Arg)] | -0.171
35 | COc1cc(Nc2ncc(F)c(Nc3ccc4c(n3)NC(=O)C(C)(C)O4)n2)cc(OC)c1OC | 0.607
36 | C#CCC(Cc1cnc2nc(N)nc(N)c2n1)c1ccc(C(=O)N[C@@H](CCC(=O)O)C(=O)O)cc1 (some centres undefined) [Pralatrexate] | -0.0274
37 | Cc1nccn1CC1CCc2c(c3ccccc3n2C)C1=O (centres undefined) [Ondansetron HCl] | -0.0791
38 | C[C@]1(c2nc3c(C(N)=O)cccc3[nH]2)CCCN1 [Veliparib (ABT-888)] | 1.04
39 | Cc1ccc(-n2nc(C(C)(C)C)cc2NC(=O)Nc2ccc(OCCN3CCOCC3)c3ccccc23)cc1 [BIRB 796 (Doramapimod)] | -0.788

Shown tab-delimited: entries from further up.
Row	SMILES	total neurite length per nucleus (z-score)
27	Cc1cc(=O)[nH]c(=S)[nH]1 [Methylthiouracil]	1.09
28	C[C@H]1CO[C@@H]2Cn3cc(C(=O)NCc4ccc(F)cc4F)c(=O)c(O)c3C(=O)N12	0.227
